No constants are given. Whether binding was seen depends on the method and setting. In cells and extracts the contact can be indirect. These calls come from enrichment with a bait or labelling near it, and not all partners need be listed. A no says only that the protein was not detected with the bait. Tags and fused reporters may be left off the sequences shown.

By UniProt entry, the sequences of proteins in these tests, tags left out.
UniProt O35129: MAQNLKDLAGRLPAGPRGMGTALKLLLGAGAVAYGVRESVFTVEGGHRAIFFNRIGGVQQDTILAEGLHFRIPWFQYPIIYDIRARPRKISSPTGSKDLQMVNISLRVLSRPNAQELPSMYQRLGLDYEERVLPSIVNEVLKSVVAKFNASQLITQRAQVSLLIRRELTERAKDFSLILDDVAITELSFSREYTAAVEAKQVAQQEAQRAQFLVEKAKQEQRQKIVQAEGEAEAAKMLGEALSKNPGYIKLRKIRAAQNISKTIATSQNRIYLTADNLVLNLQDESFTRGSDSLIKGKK

The assay addresses T1, Twinkle-APEX2-V5 (UniProt Q8CIW5).
T1 sequence: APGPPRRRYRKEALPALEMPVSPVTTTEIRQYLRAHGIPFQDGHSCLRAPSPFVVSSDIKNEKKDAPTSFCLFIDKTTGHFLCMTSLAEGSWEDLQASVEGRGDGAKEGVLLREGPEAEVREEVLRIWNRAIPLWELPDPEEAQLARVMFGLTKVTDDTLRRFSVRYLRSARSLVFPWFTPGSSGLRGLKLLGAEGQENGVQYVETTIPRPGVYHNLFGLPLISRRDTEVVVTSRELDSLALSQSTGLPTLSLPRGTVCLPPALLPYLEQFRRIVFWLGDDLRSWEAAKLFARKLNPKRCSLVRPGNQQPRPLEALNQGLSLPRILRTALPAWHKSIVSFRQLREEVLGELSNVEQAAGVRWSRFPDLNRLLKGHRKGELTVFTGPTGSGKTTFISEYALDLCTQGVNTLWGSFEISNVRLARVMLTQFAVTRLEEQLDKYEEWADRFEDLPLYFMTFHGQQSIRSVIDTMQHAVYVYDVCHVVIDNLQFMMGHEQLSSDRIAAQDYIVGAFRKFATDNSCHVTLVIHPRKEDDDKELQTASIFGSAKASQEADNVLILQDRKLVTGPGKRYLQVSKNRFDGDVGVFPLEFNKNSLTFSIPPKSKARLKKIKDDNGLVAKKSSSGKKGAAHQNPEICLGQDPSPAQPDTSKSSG
Description: proximity labelling; APEX2 proximity biotinylation in transgenic C2C12 (2.5 mM biotin-phenol 7 h, 1 mM H2O2 1 min), RIPA lysate, streptavidin-magnetic beads, mass spectrometry; enrichment against mitoAPEX2 or empty vector pBabe.

As for Prohibitin2 (from UniProt O35129 1-299), the binding result was “no binding”.

For the origin of these results see PMC9640553.
